US20220275100A1
Where a chain is given by its changes, count along the chain named. These are yes or no findings as the source states them, for the method shown. Some entries that bind do so weakly or less than the wild type.

The chains behind the UniProt entries cited, without tags or fusion partners. Where a name states a change or a piece, a line headed by the entry shows the natural chain unless it says otherwise.
UniProt P28907: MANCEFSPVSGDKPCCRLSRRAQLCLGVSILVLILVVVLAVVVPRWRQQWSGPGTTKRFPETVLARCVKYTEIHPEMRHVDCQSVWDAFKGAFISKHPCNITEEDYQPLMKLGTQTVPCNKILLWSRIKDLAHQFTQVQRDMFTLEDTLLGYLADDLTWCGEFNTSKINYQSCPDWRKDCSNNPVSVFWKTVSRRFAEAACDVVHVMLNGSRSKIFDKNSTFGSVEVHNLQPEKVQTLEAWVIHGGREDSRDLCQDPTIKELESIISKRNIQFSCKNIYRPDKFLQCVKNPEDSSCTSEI

B1: h011-02 (antibody, human IgG1, kappa, V domains shown)
VH: EVQLVESGGGLVQPGGSLRLSCAASGFTFSDYGMHWVRQAPGKGLEWVAFISSGSSSIYYADTVKGRFTISRDNAKSSLFLQMTSLRAEDTAVYSCARNYVSSYGYFDYWGQGTTVTVSS
VL: DIVMTQSPDSLAVSLGERATINCRASENVDNYGISFMHWYQQKPGQPPKLLIYRASNLESGVPDRFSGSGSGTDFTLTISSLQAEDVAVYYCQQSNKDPLTFGGGTKVEIKR
B2: h011-03 (antibody, human IgG1, kappa, V domains shown)
VH: B1 VH with F80Y, S95Y
VL: B1 VL with G72R
B3: h011-04 (antibody, human IgG1, kappa, V domains shown)
VH: B1 VH
VL: B1 VL with G72R
B4: h011-05 (antibody, human IgG1, kappa, V domains shown)
VH: B1 VH with F80Y, S95Y
VL: B1 VL with V62I, G72R, V89T

Biological target: Fusion protein of CD38 extracellular domain with His tag: CD38-ECD-His (human) (UniProt P28907)
Experiment: SPR (Biacore)

binding, binds:
B1, B2, B3, B4
